Assay results taken from patent US10266567B2, “Peptides and compositions comprising same and uses thereof in the treatment of diseases” (Ariel-University Research and Development Company Ltd., priority 2015, dated 2019).
Entries after “also recorded” stand apart in the source; their conditions may differ. Not every detail of the peptide structures is certain; ends, links or a residue may be inferred. Bridge positions count the residues as written; N and C are the ends. Peptide text beside a SMILES is read from it.

Legend:
B16F10 cells = assay: Subcutaneous melanoma mouse model; assay type: in vivo, C57BL/6 mice; conditions: 0.3 mg/kg i.p. 5 days a week, n=6
B16-F10 melanoma cells = assay: Metastatic melanoma mice model using B16F10 cells; assay type: in vivo, C57BL/6 mice; conditions: 0.3 mg/kg daily i.p., 5×10^3 B16-F10 cells i.v., vs saline
Experimental: Metastatic melanoma mice model using B16F10 cells. Murine B16F10 cells grown in RPMI were harvested by trypsinization and washed with PBS. The cells were counted and resuspended in PBS to final concentrations of 1.0×10^5 cells/mL and were maintained at 4° C. for immediate i.v inoculation into the tail vein of C57BL6 male mice (Harlan Labs). Next day, following tumor cell inoculation, these animals received i.p. injection of ALOS peptide or saline. Injections were performed daily throughout the working week. Mice were weighed daily on the day of injection.
For analysis of the peptides' effect on melanoma nodule formation all mice were sacrificed 18 days following the i.v. injection. Organs were dissected analyzed visually. The lungs of sacrificed mice were rinsed in saline and fixed with Bouin's solution. The total number of visible nodules on the lung surface per animal was counted.
For analysis of the peptides' effect on survival of melanoma cell-inoculated mice, animals were observed several times a week for signs of lethargy such as weight loss, hunched position and epilepsy. In order to lessen suffering, when these symptoms occurred, mice were euthanized with cervical dislocation after CO2 anesthesia. Survival time was recorded and long-term survivors were defined as animals surviving longer than 3 times the median survival of non-treated animals. […]

SMILES: CC(C)C[C@@H]1NC(=O)[C@H](CO)NC(=O)CNC(=O)[C@H](C)NC(=O)[C@H](CO)NC(=O)[C@H](CO)NC(=O)[C@@H](N)CSSC[C@@H](C(=O)O)NC(=O)[C@H](Cc2ccccc2)NC1=O [ALOS4, CSSAGSLFC] (H-CSSAGSLFC-OH; disulfide 1-9)
- Survival rate, subcutaneous melanoma model (B16F10 cells): increases survival rate
- Survival of metastatic melanoma mice (B16-F10 melanoma cells): significantly increased the survival; also recorded: significantly delayed animals' death
